Earlier results as cited in patent publication US9782397B2, “Treatment of corneal neovascularization” (IRBM SCIENCE PARK S.P.A., priority 2011, dated 2017).
At least one structure is not confirmed: it was looked up by name or label, or the drawing left a doubt.

System: CNV
Conditions: murine corneal alkaline burn model; cited from earlier work

CO[C@H]1C[C@@H]2CC[C@@H](C)[C@@](O)(O2)C(=O)C(=O)N2CCCC[C@H]2C(=O)O[C@H]([C@H](C)C[C@@H]2CC[C@@H](O)[C@H](OC)C2)CC(=O)[C@H](C)/C=C(\C)[C@@H](O)[C@@H](OC)C(=O)[C@H](C)C[C@H](C)/C=C/C=C/C=C/1C [rapamycin]
inhibition of CNV: effective
